Assay results: PubChem BioAssay AID602161 (Broad Institute, 2011)
The other results are listed elsewhere or left out. The source made no clear call on entries shown without one.

Biological target: Heat shock protein HSP 90-alpha (Homo sapiens) (UniProt P07900)
Experiment: human Hsp90 inhibitors in yeast GR reporter, dose response, selectivity assay for Plasmodium Hsp90 inhibitor project, S. cerevisiae, beta-galactosidase luminescence, dry powder (AID 602161)
Conditions: S. cerevisiae HsHsp90 GR reporter, beta-gal luminescence; at 26 µM (top of the series)

- activity change, negative = inhibition: -43.5%
Structure (SMILES): O=S(=O)(NC1CC2CCC1C2)c1ccc(Cl)cc1 (stereo unspecified)
